The numbers were not newly measured in article PMC5858514 (Theranostics, 2018), which cites them from elsewhere.

The structures appear in SMILES notation. Converted amounts (≈) assume the structure as drawn.

For the data set the following is noted: not among the compounds measured, no reference given; cited from earlier work.

With `CC(=O)O[C@H]1C(=O)[C@@]2(C)[C@H]([C@H](OC(=O)c3ccccc3)[C@]3(O)C[C@H](OC(=O)[C@H](O)[C@@H](NC(=O)c4ccccc4)c4ccccc4)C(C)=C1C3(C)C)[C@]1(OC(C)=O)CO[C@@H]1C[C@@H]2O` [PTX, paclitaxel], the water solubility was ~0.4 µg/mL (≈ 0.468 µM).
